Results published in the supplement of paper PMC12067093, “Discovery and optimisation of a covalent ligand for TRIM25 and its application to targeted protein ubiquitination” (Chemical Science, 2025).
Some of the results follow.

Sequences of proteins named here, by UniProt entry; tags and fusion partners are left off. A change or cut given only in a name is not applied to a line headed by its entry.
UniProt Q5UIP0: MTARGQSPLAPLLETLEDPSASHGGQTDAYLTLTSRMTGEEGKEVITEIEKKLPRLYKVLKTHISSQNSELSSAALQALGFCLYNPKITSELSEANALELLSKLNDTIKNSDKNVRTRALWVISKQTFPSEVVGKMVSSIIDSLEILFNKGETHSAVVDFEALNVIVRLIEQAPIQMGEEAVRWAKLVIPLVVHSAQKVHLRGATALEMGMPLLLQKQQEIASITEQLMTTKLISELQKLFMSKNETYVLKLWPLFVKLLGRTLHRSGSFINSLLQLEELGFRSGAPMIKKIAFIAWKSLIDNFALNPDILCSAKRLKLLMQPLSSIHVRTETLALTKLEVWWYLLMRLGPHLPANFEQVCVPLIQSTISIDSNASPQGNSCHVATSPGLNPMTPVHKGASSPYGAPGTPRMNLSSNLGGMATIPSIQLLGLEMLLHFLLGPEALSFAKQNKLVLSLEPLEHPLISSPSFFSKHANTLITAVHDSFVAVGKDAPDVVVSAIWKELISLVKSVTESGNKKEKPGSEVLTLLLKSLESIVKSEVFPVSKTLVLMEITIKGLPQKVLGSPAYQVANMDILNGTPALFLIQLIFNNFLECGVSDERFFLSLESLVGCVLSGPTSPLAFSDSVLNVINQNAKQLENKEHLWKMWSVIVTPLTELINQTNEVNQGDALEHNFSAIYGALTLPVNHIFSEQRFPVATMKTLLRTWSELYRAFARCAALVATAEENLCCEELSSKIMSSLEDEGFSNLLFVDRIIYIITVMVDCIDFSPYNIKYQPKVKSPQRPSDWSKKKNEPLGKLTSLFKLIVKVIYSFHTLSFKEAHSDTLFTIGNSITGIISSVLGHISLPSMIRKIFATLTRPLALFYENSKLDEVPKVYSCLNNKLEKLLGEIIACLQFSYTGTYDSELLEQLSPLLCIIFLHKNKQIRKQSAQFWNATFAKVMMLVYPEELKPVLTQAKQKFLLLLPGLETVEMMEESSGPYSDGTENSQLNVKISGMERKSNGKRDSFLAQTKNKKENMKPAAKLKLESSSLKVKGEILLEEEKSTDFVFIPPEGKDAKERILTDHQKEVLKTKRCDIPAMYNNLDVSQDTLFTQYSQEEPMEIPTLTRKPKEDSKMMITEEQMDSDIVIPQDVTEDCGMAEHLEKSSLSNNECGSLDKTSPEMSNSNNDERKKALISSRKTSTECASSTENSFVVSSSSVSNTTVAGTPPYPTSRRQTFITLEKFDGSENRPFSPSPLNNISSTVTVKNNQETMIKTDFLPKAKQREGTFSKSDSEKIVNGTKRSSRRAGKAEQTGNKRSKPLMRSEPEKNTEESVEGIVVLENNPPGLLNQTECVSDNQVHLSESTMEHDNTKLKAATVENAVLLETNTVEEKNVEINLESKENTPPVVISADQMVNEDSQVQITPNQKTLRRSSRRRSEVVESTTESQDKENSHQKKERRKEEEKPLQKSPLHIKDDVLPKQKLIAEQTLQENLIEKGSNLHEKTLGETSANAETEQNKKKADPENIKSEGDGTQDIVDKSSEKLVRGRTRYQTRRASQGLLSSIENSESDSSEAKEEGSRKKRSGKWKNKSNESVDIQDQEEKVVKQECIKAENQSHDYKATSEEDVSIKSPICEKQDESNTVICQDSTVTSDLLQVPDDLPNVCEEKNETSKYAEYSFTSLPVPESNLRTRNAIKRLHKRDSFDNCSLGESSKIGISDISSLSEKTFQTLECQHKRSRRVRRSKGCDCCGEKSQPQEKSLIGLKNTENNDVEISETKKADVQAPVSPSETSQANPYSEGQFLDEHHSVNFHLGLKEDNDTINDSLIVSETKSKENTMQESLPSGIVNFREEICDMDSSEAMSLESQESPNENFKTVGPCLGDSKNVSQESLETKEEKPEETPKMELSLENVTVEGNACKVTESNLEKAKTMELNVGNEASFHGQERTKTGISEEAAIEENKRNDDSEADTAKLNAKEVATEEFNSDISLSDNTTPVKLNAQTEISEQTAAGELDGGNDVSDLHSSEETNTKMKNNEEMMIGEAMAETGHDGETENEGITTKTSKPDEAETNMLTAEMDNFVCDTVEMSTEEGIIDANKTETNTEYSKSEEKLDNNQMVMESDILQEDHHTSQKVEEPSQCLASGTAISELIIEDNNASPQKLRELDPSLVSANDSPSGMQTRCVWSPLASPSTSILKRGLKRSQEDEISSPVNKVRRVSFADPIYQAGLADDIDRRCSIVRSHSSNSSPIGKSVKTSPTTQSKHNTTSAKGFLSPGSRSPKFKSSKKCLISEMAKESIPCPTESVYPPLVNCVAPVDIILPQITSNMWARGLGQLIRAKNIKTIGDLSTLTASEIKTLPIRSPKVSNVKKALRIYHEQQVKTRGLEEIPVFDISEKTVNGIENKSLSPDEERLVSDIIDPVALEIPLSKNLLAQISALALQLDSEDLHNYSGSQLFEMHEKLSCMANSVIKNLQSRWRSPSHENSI
UniProt O94762: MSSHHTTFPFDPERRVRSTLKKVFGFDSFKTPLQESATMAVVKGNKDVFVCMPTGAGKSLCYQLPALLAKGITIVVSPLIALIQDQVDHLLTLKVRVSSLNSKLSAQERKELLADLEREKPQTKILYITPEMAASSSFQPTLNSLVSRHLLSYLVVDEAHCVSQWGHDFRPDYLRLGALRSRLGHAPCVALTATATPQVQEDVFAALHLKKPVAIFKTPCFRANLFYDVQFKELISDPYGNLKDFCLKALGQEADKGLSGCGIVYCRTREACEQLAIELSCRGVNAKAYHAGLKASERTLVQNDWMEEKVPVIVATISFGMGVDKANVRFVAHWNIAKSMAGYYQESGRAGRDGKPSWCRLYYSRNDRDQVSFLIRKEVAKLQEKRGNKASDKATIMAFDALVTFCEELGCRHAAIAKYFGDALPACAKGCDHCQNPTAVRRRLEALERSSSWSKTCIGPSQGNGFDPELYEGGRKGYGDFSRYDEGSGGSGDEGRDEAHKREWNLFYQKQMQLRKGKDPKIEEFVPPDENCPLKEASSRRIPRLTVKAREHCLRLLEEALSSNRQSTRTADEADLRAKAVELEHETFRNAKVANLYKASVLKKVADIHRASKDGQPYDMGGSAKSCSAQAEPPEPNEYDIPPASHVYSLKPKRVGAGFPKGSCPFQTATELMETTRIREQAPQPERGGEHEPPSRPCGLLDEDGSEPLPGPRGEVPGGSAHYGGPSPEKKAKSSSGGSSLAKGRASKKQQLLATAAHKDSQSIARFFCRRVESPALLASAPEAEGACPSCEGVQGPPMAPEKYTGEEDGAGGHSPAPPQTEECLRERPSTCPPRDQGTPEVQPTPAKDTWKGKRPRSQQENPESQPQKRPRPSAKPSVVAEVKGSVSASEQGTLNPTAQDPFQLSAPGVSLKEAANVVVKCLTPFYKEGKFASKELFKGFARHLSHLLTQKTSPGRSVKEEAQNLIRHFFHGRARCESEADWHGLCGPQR
UniProt P40938, whole entry, looked up: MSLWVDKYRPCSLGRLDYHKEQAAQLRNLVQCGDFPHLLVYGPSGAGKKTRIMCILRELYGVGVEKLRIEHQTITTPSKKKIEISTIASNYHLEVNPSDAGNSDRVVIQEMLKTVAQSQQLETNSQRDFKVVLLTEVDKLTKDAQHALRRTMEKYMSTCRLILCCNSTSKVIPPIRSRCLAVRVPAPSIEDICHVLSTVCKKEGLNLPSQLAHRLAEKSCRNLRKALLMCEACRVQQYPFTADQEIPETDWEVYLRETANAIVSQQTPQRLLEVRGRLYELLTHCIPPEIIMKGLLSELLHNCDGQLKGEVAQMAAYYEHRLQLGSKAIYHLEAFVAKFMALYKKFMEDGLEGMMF
UniProt O43566: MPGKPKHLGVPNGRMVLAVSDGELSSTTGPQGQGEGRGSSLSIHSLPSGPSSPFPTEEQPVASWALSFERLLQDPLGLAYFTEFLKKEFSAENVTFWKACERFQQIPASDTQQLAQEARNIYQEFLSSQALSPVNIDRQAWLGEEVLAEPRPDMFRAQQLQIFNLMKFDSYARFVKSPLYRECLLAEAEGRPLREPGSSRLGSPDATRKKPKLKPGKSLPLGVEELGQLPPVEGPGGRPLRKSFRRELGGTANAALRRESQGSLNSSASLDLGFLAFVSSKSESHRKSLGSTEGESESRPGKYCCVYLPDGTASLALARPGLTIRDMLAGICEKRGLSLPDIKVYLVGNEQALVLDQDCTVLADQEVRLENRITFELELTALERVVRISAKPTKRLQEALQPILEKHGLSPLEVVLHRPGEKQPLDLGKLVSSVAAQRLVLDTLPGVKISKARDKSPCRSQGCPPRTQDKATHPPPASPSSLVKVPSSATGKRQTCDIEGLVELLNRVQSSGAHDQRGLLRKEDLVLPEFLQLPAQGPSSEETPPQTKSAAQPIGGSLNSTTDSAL
UniProt P51606: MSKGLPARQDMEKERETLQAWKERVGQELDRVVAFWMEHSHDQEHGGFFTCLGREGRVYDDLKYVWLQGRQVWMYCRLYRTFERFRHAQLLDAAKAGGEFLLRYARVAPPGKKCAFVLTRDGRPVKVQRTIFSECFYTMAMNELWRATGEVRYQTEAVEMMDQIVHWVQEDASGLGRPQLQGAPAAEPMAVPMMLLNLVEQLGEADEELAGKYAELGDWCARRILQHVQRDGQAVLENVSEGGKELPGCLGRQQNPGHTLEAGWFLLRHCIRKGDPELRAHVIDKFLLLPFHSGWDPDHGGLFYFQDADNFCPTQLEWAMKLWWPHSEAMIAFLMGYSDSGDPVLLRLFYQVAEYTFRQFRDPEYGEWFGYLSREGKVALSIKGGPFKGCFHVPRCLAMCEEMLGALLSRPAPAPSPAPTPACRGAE
UniProt P35251: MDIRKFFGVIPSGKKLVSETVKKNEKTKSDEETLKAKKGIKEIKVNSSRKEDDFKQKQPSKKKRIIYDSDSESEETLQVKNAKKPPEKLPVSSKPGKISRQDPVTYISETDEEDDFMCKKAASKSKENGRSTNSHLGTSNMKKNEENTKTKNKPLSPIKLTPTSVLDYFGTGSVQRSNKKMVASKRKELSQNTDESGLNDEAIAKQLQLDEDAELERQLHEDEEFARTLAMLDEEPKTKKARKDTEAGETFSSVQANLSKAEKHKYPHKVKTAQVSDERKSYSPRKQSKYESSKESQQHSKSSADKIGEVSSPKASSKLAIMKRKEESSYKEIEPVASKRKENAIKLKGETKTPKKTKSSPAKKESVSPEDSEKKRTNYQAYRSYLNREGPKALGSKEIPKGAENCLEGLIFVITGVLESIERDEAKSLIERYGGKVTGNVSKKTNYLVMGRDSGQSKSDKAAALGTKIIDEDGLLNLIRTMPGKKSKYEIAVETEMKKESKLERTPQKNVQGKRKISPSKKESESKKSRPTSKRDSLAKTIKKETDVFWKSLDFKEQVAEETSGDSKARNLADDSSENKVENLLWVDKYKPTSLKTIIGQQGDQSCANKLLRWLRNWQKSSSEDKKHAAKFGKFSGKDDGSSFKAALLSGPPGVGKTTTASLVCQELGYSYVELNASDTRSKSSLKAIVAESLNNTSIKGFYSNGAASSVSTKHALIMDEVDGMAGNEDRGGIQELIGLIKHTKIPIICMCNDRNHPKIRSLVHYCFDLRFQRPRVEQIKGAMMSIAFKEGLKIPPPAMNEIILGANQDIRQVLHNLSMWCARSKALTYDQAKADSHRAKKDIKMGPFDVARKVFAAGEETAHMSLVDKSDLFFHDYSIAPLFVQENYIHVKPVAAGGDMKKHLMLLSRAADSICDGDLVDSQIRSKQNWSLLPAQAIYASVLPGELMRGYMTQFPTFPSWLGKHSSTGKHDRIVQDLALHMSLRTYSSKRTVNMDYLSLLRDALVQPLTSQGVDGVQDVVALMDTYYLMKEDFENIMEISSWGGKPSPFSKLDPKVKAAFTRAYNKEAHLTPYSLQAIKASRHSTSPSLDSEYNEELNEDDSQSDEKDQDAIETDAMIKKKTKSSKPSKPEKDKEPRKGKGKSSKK
UniProt Q9BWE0: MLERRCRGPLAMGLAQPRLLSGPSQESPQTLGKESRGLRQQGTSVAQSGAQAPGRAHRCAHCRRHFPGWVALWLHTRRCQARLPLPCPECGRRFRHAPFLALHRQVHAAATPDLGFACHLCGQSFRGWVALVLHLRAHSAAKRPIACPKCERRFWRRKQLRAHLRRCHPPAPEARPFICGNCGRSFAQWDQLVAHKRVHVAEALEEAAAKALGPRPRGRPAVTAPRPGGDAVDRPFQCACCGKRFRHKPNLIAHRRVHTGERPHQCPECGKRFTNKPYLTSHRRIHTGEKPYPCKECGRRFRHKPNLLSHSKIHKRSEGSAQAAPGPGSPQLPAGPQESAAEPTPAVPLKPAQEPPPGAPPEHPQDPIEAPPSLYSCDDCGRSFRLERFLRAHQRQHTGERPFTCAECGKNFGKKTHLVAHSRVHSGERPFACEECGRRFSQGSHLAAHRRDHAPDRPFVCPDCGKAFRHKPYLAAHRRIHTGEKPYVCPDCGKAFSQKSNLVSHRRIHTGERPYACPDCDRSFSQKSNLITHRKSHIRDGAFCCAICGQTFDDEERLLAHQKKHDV

Compound: Cc1cc(ccc1-c1ccccc1)C(=O)N1CCCN(CC1)C(=O)CCl [compound 10]
Experiment: probe-labelled cysteine peptide fold change vs DMSO (competition) (log2 fold change); higher = less target engagement (more negative = stronger competition)
Settings: THP-1, incubation time: 4 h
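Also: competitive profiling in live THP-1 cells: cysteine peptides tagged with an iodoacetamide desthiobiotin (IA-DTB) probe, intensity after compound treatment relative to DMSO-treated cells.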

| Target | probe-labelled cysteine peptide fold change (10 µM) | probe-labelled cysteine peptide fold change (50 µM) |
| --- | --- | --- |
| RIF1_Q5UIP0_1718_TFQTLECQHK (UniProt Q5UIP0) | -0.105 | -0.217 |
| RECQL5_O94762_977_CESEADWHGLCGPQR (UniProt O94762) | 0.223 | -0.0322 |
| RIOK2_Q9BVS4_449_VQGGVPAGSDEYEDECPHLIALSSLNR (UniProt Q9BVS4) | -0.361 | -0.501 |
| RLF_Q13129_227_SNCIPQATALSK (UniProt Q13129) | -0.0888 | -0.229 |
| RFC3_P40938_165_LILCCNSTSK (UniProt P40938) | -0.142 | 0.0949 |
| RIOK3_O14730_400_QLYHECTLVHADLSEYNMLWHAGK (UniProt O14730) | 0.101 | -0.261 |
| RMND5A_Q9H871_328+336_CWYHSIFACPILR (UniProt Q9H871) | -0.0698 | -0.177 |
| RNASET2_O00584_48_KLIMVQHWPETVCEK (UniProt O00584) | -0.108 | -0.333 |
| REST_Q13127_402_CNLQYHFK (UniProt Q13127) | -0.115 | 0.0335 |
| RLF_Q13129_1212+1218_CDHEGPCSVDR (UniProt Q13129) | -0.00264 | 0.122 |
| RIF1_Q5UIP0_731_CAALVATAEENLCCEELSSK (UniProt Q5UIP0) | -0.398 | -0.0693 |
| RFC3_P40938_233_ALLMCEACR (UniProt P40938) | 0.178 | -0.202 |
| RGS14_O43566_183_ECLLAEAEGR (UniProt O43566) | -0.0353 | 0.16 |
| RLF_Q13129_773_CELNGCNIVFSDLGQLYHHEAQHFR (UniProt Q13129) | 0.00468 | -0.0401 |
| RFC2_P35250_171_FALACNASDK (UniProt P35250) | 0.0304 | 0.151 |
| RENBP_P51606_76_QVWMYCR (UniProt P51606) | 0.076 | 0.168 |
| RICTOR_Q6R327_893+906_TGCHLLEVQNIITELCR (UniProt Q6R327) | -0.265 | -0.217 |
| RHOG_P84095_105_WHPEVCHHCPDVPILLVGTK (UniProt P84095) | 0.143 | 0.0248 |
| RFC1_P35251_916_AADSICDGDLVDSQIR (UniProt P35251) | -0.128 | 0.204 |
| RGL2_O15211_284_DRPGHSHLCPSVR (UniProt O15211) | 0.0319 | -0.00699 |

No new results follow: entries from further up.

| Target | probe-labelled cysteine peptide fold change (10 µM) | probe-labelled cysteine peptide fold change (50 µM) |
| --- | --- | --- |
| RENBP_P51606_76_QVWMYCR (UniProt P51606) | 0.076 | 0.168 |
| RICTOR_Q6R327_893+906_TGCHLLEVQNIITELCR (UniProt Q6R327) | -0.265 | -0.217 |
| RHOG_P84095_105_WHPEVCHHCPDVPILLVGTK (UniProt P84095) | 0.143 | 0.0248 |

(further entries)

| Target | probe-labelled cysteine peptide fold change (10 µM) | probe-labelled cysteine peptide fold change (50 µM) |
| --- | --- | --- |
| RNASE2_P10153_138_YAQTPANMFYIVACDNRDQR (UniProt P10153) | -0.465 | -0.74 |
| RIOX1_Q9H6W3_409_GFIHQAECQDGVHSLHLTLSTYQR (UniProt Q9H6W3) | 0.062 | 0.191 |
| RFC4_P35249_180_FCLICNYVSR (UniProt P35249) | -0.0567 | -0.0404 |
| RIC8A_Q9NPQ8_79_DRNCLDPFTSR (UniProt Q9NPQ8) | -0.104 | 0.057 |
| RNF114_Q9Y508_64+67_KPVCGVCR (UniProt Q9Y508) | -0.15 | -0.53 |
| RIN1_Q13671_623_RLPATHCFQHLLR (UniProt Q13671) | -0.136 | -0.742 |
| RIN1_Q13671_623_LPATHCFQHLLR (UniProt Q13671) | -0.151 | -0.687 |
| RGS14_O43566-5_207_ALVLDQDCTVLADQEVR (UniProt O43566) | -0.12 | 0.47 |
| RFC1_P35251_607_TIIGQQGDQSCANK (UniProt P35251) | -0.288 | -0.227 |
| RENBP_P51606_396_CLAMCEEMLGALLSR (UniProt P51606) | 0.0603 | 0.188 |
| RFK_Q969G6_8_HLPYFCR (UniProt Q969G6) | -0.142 | -0.0297 |
| REPIN1_Q9BWE0_433_VHSGERPFACEECGR (UniProt Q9BWE0) | 0.213 | 0.226 |
| REPIN1_Q9BWE0_433+436_VHSGERPFACEECGR (UniProt Q9BWE0) | -0.108 | -0.289 |
| RFWD3_Q6PCD5_379_QAELESAQCR (UniProt Q6PCD5) | -0.0752 | -0.305 |
| RET_P07949_987_LMLQCWK (UniProt P07949) | 0.0807 | 0.122 |
| RMDN3_Q96TC7_128_CHMEENQR (UniProt Q96TC7) | -0.178 | -0.221 |
| RNF126_Q9BV68_13_YFCHCCSVEIVPR (UniProt Q9BV68) | 0.0903 | -0.161 |
| RFXANK_O14593_205_CVEALLAR (UniProt O14593) | 0.0175 | -0.265 |
| RHBDF2_Q6PJF5_500_DSGCCVQNDHSGCIQTQR (UniProt Q6PJF5) | -0.0344 | -0.181 |
| RECQL5_O94762_188_LGHAPCVALTATATPQVQEDVFAALHLK (UniProt O94762) | -0.0189 | -0.228 |
